Drawing on PMC5316994, this text covers binding for two substances.

By UniProt entry, the sequences of proteins in these tests, tags left out. Where a name states a change or a piece, a line headed by the entry shows the natural chain unless it says otherwise.
UniProt Q8I489: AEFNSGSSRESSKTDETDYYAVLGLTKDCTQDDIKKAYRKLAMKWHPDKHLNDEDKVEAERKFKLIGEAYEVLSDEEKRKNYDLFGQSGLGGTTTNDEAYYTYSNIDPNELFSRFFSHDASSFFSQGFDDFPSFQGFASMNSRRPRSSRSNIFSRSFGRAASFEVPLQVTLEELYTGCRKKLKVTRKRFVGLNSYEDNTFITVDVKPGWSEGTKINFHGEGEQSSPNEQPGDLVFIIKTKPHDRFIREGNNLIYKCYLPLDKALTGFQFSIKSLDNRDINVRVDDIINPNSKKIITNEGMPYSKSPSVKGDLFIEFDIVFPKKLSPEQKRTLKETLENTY
UniProt Q8IAK9: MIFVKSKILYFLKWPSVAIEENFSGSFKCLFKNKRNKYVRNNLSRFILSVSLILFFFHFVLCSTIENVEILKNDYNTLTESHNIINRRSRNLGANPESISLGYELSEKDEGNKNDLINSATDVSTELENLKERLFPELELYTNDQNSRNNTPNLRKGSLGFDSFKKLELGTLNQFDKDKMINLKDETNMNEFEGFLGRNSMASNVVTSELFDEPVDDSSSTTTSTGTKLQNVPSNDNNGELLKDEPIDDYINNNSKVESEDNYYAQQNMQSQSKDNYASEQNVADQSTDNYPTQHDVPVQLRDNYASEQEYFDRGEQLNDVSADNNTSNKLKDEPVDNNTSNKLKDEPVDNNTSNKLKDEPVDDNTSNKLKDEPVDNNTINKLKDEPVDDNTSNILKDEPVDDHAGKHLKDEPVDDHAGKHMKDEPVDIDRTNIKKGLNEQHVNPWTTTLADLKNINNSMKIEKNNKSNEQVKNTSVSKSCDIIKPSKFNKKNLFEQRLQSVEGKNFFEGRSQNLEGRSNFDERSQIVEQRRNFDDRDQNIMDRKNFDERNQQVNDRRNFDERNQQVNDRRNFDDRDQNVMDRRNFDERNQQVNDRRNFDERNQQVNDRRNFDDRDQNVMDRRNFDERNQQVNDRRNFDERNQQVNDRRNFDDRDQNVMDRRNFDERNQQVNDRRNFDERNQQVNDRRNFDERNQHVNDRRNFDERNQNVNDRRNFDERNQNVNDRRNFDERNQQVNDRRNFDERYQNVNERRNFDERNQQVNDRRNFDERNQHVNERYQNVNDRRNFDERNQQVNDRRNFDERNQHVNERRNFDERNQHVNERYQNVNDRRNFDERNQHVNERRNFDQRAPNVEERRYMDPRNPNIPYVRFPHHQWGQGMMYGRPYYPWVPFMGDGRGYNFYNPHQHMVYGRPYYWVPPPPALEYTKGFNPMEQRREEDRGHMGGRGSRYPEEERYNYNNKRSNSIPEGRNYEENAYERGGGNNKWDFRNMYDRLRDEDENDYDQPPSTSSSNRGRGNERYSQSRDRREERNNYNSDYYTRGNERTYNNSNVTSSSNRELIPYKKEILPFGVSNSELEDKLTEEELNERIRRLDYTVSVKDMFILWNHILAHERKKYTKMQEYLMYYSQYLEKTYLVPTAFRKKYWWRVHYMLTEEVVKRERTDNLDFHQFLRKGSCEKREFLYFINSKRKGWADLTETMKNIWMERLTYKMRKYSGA

These are yes or no findings as the source states them, for the method shown. In cells and extracts the contact can be indirect. Binding can be weak; no strength is given.

The assay addresses PFE55^GFP (Plasmodium falciparum 3D7) (UniProt Q8I489). The experiment in a line: co-IP.

For PfHsp101 (from UniProt Q8IIJ8), the binding result is “binds”. In the case of PfPHIST_0801 (from UniProt Q8IAK9) it was “binds”.
